Laboratory results published in PubChem BioAssay AID1671190 (National Center for Advancing Translational Sciences (NCATS), 2021).
Values joined by “and” are separate entries in the source; they are usually repeats but may differ in a detail not shown here. Equal values may be shown once. Hit rate of the full screen: of about 580,000 compounds, about 6,100 (1.1%) were called active. Inconclusive results, whose numbers are uncertain, are shown with a selection of clear calls. Calls follow the shape of the dose curve; as a rule, active = well fitted inhibition curve with a large enough effect; inconclusive = small, poorly fitted or top-dose-only effect, or another doubt; inactive = no such curve, though single readings can be large or run the other way. Where the call is inconclusive, the potency comes from a doubtful curve fit.

Sequences of proteins named here, by UniProt entry; tags and fusion partners are left off.
UniProt P18054, whole entry, looked up: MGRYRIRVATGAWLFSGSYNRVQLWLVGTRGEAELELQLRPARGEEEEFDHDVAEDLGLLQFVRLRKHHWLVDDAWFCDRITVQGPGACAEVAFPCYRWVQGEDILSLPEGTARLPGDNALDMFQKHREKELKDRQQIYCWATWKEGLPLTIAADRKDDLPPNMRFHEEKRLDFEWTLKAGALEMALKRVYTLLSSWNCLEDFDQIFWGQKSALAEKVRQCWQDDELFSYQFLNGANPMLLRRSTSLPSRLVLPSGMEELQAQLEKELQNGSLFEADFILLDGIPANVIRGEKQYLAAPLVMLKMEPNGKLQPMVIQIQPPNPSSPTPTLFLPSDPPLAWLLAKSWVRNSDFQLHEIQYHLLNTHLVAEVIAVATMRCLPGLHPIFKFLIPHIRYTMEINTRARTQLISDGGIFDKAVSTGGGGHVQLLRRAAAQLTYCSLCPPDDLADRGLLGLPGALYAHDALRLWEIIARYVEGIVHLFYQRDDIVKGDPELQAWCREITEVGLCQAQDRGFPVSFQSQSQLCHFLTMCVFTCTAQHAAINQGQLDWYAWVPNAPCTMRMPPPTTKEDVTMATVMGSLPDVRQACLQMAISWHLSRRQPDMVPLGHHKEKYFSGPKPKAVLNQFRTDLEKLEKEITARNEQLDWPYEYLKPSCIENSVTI

Target: Polyunsaturated fatty acid lipoxygenase ALOX12 (Homo sapiens) (UniProt P18054)
Assay: Primary qHTS assay for inhibitors of human arachidonate 12S-lipoxygenase (ALOX12): Round 2
Details: purified 12hLO, xylenol orange hydroperoxide absorbance; activity change, negative = inhibition: at 108 µM (top of the series) unless noted
Outline: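 Purified human 12hLO at 150 nM in 25 mM Hepes, 0.01% Triton X-100, pH 7.0, preincubated 15 min at room temperature with compound. Reaction started with 40 uM arachidonic acid, 30 min at room temperature. Hydroperoxide measured by Fe-xylenol orange, 573/405 nm absorbance ratio.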
% is scaled to controls: 0 for no effect and ±100 for the full control effect; potency is read from the fitted curve at half-maximal effect.

Structure (SMILES) | Potency | activity change, negative = inhibition
CCCNc1c(NC(C)=O)c(=O)oc2ccccc12 | inconclusive: 112 µM [inhibitor, partial curve, poor fit] | 
O=S(=O)(c1ccc(F)cc1)N1CN(Cc2ccco2)c2nc3ccccc3nc21 | inconclusive: 39.8 µM [inhibitor, partial curve, poor fit] | 
COc1ccc(NC(=O)Cn2c(=O)c3cccn3c3ccccc32)cc1Cl | inconclusive: 126 µM [inhibitor, partial curve, poor fit] | 
C(=C\c1ccccc1)/CN1CCN(C(c2nnnn2Cc2ccccc2)C2CC2)CC1 (configuration not stated) | inconclusive: 89.1 µM [inhibitor, partial curve, poor fit] | 
c1cc2c(cc1-c1csc(NC3CCCC3)n1)OCCCO2 | inconclusive: 44.7 µM [inhibitor, partial curve, poor fit] | 
CC[C@@]1(C(=O)OC)N[C@H](CN(C)C(=O)c2ccc(C)cc2)[C@@H]2C(=O)N(C)C(=O)[C@@H]21 | inconclusive: 25.1 µM [inhibitor, partial curve, poor fit] | 
c1ccc(CNc2nc(Nc3cccc4ccccc34)nc3ccccc23)cc1 | inconclusive: 50.1 µM [inhibitor, partial curve, poor fit] | 
CNC(=S)NNC(=O)c1ccc(C)cc1 |  | inactive: 17.7%
COc1ccc(S(=O)(=O)NCc2ccc(C(=O)NCc3cccnc3)cc2)cc1 | inconclusive: 126 µM [inhibitor, single point] | 
COc1cccc2sc(NC(=O)c3ccc(S(=O)(=O)N4CCC(C)CC4)cc3)nc12 | inconclusive: 39.8 µM [inhibitor, partial curve, poor fit] | 
Cc1cc(-c2n[nH]c(=S)n2/N=C/c2cc([N+](=O)[O-])ccc2Cl)n[nH]1 | inconclusive: 44.7 µM [inhibitor, partial curve, poor fit] | 
COc1ccc(C)cc1NC(=O)Nc1cc(C(=O)NCc2ccc(C)cc2)ccc1N1CCCC1 | inconclusive: 56.2 µM [inhibitor, partial curve, poor fit] | 
O=C(CN1CCN(c2cnn(-c3ccccc3)c(=O)c2Cl)CC1)Nc1ccc2ccccc2c1 |  | inactive: -32.4%
O=C(O)c1ccc(Sc2ccccn2)cc1 | inconclusive: 79.4 µM [inhibitor, partial curve, poor fit] | 
Cn1nc(/C=C/c2ccccc2)ccc1=O |  | inactive: -10.7%
CCOc1ccc(S(=O)(=O)Nc2ccccc2-c2nnc3n2CCCCC3)cc1OCC | inconclusive: 5.62 µM [inhibitor, full curve, poor fit] | 
CCOC(=O)C(=CNc1cc(Cl)c(-c2ccco2)c(Cl)c1)C(=O)OCC | inconclusive: 100 µM [inhibitor, partial curve, poor fit] | 
CCOC(=O)C1CCCN(c2c(NCCN3CCCCC3C)c(=O)c2=O)C1 (configuration not stated) | inconclusive: 63.1 µM [inhibitor, partial curve, poor fit] | 
COc1cc2cc(C(c3nnnn3C3CCCC3)N3CCCCCC3)c(=O)[nH]c2cc1OC (configuration not stated) | inconclusive: 79.4 µM [inhibitor, single point] | 
CC1CCN(c2nc(-c3ccncc3)nc3ccccc23)CC1 | inactive and inconclusive: 126 µM [inhibitor, single point] | 
CC(C)Oc1ccc(/C=C(/C#N)c2ccc(C(F)(F)F)cn2)cc1 | inconclusive: 126 µM [inhibitor, single point] | 
Oc1ccc(C[C@H]2CNC(=S)N2CC2CCCN2C[C@H](Cc2ccccc2)N2C[C@H](Cc3ccc(O)cc3)N(CC3CCCCC3)C2=S)cc1 (some centres not stated) | inconclusive: 50.1 µM [inhibitor, partial curve, poor fit] | 
COc1ccc(CNCc2ccccc2[N+](=O)[O-])cc1OC | inconclusive: 0.631 µM [inhibitor, full curve, poor fit] | 

Structure (SMILES) | Potency | activity change, negative = inhibition
COc1ccc(C(=O)N2CCC(N3C(=O)C(OC)C34CCOCC4)CC2)c(OC)n1 (configuration not stated) |  | inactive: -0.371%
CN1c2ccccc2C(C)(C)C12CCCC(=O)N2 (configuration not stated) | inconclusive: 35.5 µM [inhibitor, partial curve, poor fit] | 
Cc1ccc(/C=C/C(=O)OC(C)C(=O)C23CC4CC(CC(C4)C2)C3)o1 (configuration not stated) | inconclusive: 35.5 µM [inhibitor, partial curve, poor fit] | 
Cc1c(-c2ccccc2)oc2c(C(=O)NCCOc3ccccc3)cccc2c1=O |  | inactive: 13%
Cc1cc(=O)n(CC(=O)Nc2ccc(C(C)C)cc2)c(N2CCN(c3ccccc3)CC2)n1 |  | inactive: 6.77%
O=C(Nc1ccc(N2CCN(c3ccc(O)cc3)CC2)cc1)Oc1ccccc1 | inconclusive: 3.55 µM [inhibitor, full curve, poor fit] | 
CCOc1ccc(CNC(=O)Cn2ccc3cc(S(=O)(=O)N4CCCC4)ccc32)cc1 |  | inactive: 42.9%
Cc1cc(N2CCN(c3ccccc3F)CC2)nc2cc(O)ccc12 | inconclusive: 56.2 µM [inhibitor, partial curve, poor fit] | 
Cc1cc(C2=NNC(=NC(C)C)SC2)c(C)n1C1CC1 | inconclusive: 50.1 µM [inhibitor, partial curve, poor fit] | 
CCOC(=O)c1c(NC(=O)c2noc(C)c2[N+](=O)[O-])sc(C(C)=O)c1C |  | inactive: -27.8%
COc1ccc(-c2nc(CS(=O)(=O)CC(=O)NCCCN3CCN(C)CC3)c(C)o2)cc1 | inconclusive: 3.98 µM [inhibitor, full curve, poor fit] | 
CCOCCCNC(=O)/C(C#N)=C\c1cccc(F)c1 |  | inactive: -13%
CCN(CC(=O)NCc1ccc(F)cc1)C(=O)CN1CCN(c2ccccc2OC)CC1 |  | inactive: -15%
C=CCn1c(SCC(=O)N(CC)C2CCS(=O)(=O)C2)nc2scc(-c3ccccc3)c2c1=O (configuration not stated) | inconclusive: 89.1 µM [inhibitor, single point] | 
Cc1ccc(-c2ccc(=O)n(Cc3noc(C(=O)NC(C)Cc4ccco4)n3)n2)cc1 (configuration not stated) |  | inactive: 3.67%
Cc1ccc(SCc2cc(=O)n3[nH]cnc3n2)cc1 | inconclusive: 89.1 µM [inhibitor, single point] | 
O=C(CSc1nc2cc3ccccc3cc2[nH]1)Nc1ccc(F)cc1 | inactive | 
COC(=O)c1ccc(CNC(=O)c2cc3c(C)nn(C)c3s2)cc1 | inconclusive: 44.7 µM [inhibitor, partial curve, poor fit] | 
CCN1CCN(c2ccc(C(=O)O)cc2NS(=O)(=O)c2ccccc2)CC1 | inconclusive: 44.7 µM [inhibitor, partial curve, poor fit] | 
CCOC(=O)N1CCC(N2C(=O)c3ccccc3C2Nc2ccccc2C)CC1 (configuration not stated) |  | inactive: 23.4%
Cc1ccccc1S(=O)(=O)NC(=O)C1(C)CCN1C(=O)C1CCCCC1 (configuration not stated) | inconclusive: 100 µM [inhibitor, single point] | 
Cc1ccc(NC(=O)CN(C)S(=O)(=O)c2ccc3c(c2)n(C)c(=O)c(=O)n3C)cc1 |  | inactive: 4.25%
CCn1c(CSc2nc3ccccc3s2)n[nH]c1=S | active: 31.6 µM | 

As entered above:
Potency, Cc1cc(C2=NNC(=NC(C)C)SC2)c(C)n1C1CC1 is entered as inconclusive: 50.1 µM [inhibitor, partial curve, poor fit]
activity change, negative = inhibition, CCOC(=O)c1c(NC(=O)c2noc(C)c2[N+](=O)[O-])sc(C(C)=O)c1C is entered as inactive: -27.8%
activity change, negative = inhibition, CCN(CC(=O)NCc1ccc(F)cc1)C(=O)CN1CCN(c2ccccc2OC)CC1 is entered as inactive: -15%

One compound at a time, from the list above:
Cc1ccc(-c2ccc(=O)n(Cc3noc(C(=O)NC(C)Cc4ccco4)n3)n2)cc1 (configuration not stated) as listed: activity change, negative = inhibition: inactive: 3.67%
COC(=O)c1ccc(CNC(=O)c2cc3c(C)nn(C)c3s2)cc1 as listed: Potency: inconclusive: 44.7 µM [inhibitor, partial curve, poor fit]

Continued.

Structure (SMILES) | Potency | activity change, negative = inhibition
Cc1cccc(-n2nnnc2SCC(=O)c2ccc(Br)s2)c1 | inconclusive: 20 µM [inhibitor, full curve] | 
CSc1nc(NC(C)C)nc(N2CCOCC2)n1 | inconclusive: 126 µM [inhibitor, single point] | 
CCOC(=O)c1ccc(NC(=S)N2CCCC2c2ccc(OC)c(OC)c2)cc1 (configuration not stated) | inconclusive: 112 µM [inhibitor, partial curve, poor fit] | 
Cc1cc(Br)cn2c(Cc3cccc(F)c3)c(-c3ccc(Cl)cc3)nc12 | inconclusive: 50.1 µM [inhibitor, partial curve, poor fit] | 
CC(Cc1cccs1)NC(=S)Nc1ccc(Cl)c(Cl)c1 (configuration not stated) | active: 31.6 µM | 
CCCCCCNC(=O)Cc1cccc2ccccc12 |  | inactive: -18.5%
COCCn1c(=O)c(-c2ccccc2)nc2cncnc21 | inconclusive: 28.2 µM [inhibitor, single point] | 
CC(NC(=O)OC(C)(C)C)C(=O)Oc1ccc2ccc(=O)oc2c1 (configuration not stated) |  | inactive: 0%
CCCOC(=O)C(C)n1c(-c2ccccc2)nc2ccccc2c1=O (configuration not stated) |  | inactive: 23.1%
COc1ccc(CCOC(=O)c2cc(S(=O)(=O)N3CCCCC3)ccc2N2CCOCC2)cc1 | inconclusive: 126 µM [inhibitor, single point] | 
COc1cccc(N=CC2=C(O)CCCC2=O)c1 | inconclusive: 44.7 µM [inhibitor, full curve, poor fit] | 
O=[N+]([O-])c1cccc(/C=N/NC(=S)Nc2ccccc2)c1 | inconclusive: 39.8 µM [inhibitor, partial curve, poor fit] | 
Cc1nc(-c2ccccc2)sc1C(=O)/C=C/N(C)C | inconclusive: 44.7 µM [inhibitor, partial curve, poor fit] | 
Cc1occc1-c1nnc(SCC(=O)NC(C)(C)C)n1CC(C)C |  | inactive: -3.38%
CC(C)NC(=O)N1CCCC2(CCN(C(=O)c3cccc(F)c3)CC2)C1 | inconclusive: 31.6 µM [inhibitor, single point] | 
CCc1c(C)[nH]c(=S)c(C#N)c1C | inconclusive: 5.01 µM [inhibitor, full curve, poor fit] | 
COc1ccc(C(C#N)(CCC#N)C(C)C)cc1OC (configuration not stated) |  | inactive: 27.4%
CC1(C(=O)NCCN2CCCCC2)CCCCC(=O)N1 (configuration not stated) |  | inactive: 24.9%
CCOC(=O)N1CCN(C(=O)C2CCCN(S(=O)(=O)c3ccc(C)cc3)C2)CC1 (configuration not stated) |  | inactive: 23.4%
CCOc1ccc(NC(=O)c2c(NCc3cccnc3)sc3c2CCC(C)C3)cc1 (configuration not stated) | active: 39.8 µM | 
N/C(Cc1ccc([N+](=O)[O-])cc1)=N\OC(=O)C(c1ccccc1)c1ccccc1 |  | inactive: 17.2%
